Where a chain is given by its changes, count along the chain named. Names and notes keep the numbering of the source. No constants are given. Whether binding was seen depends on the method and setting. Some entries that bind do so weakly or less than the wild type. Sequences can lack the tags named with a protein. One block for each binder: values may come before it.
Target: T1, recombinant human TREX1(1-242) wild-type protomer, MBP fusion (human) (UniProt Q9NSU2)
T1 sequence: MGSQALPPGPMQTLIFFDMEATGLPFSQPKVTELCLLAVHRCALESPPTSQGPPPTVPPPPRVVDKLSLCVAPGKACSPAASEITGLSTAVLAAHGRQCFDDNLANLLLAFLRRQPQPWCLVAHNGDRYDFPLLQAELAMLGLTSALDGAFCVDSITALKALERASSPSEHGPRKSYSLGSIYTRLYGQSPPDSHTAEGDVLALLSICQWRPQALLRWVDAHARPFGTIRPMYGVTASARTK
Assay: sequential affinity co-purification of two differently tagged protomers (amylose, then nickel column); MBP-hT1 WT and His-NusA-hT1 mutant co-expressed in E. coli Rosetta2 (DE3); amylose column (removes mutant homodimers), then nickel column (removes wild-type homodimers), one-step elution; then PreScission Protease and phosphocellulose column

binding: binds
B1: recombinant human TREX1(1-242) p.A136V protomer, His-tagged NusA fusion (enzyme, UniProt Q9NSU2-3 1-242)
chain: T1 sequence with A136V

binding: binds
B2: recombinant human TREX1(1-242) p.R174G protomer, His-tagged NusA fusion (enzyme, UniProt Q9NSU2-3 1-242)
chain: T1 sequence with R174G
